Counter-ions that a name gives are not always drawn. Some results were stated once for a whole list of compounds, not compound by compound.
System: E. coli
Assay: Measurement of minimum inhibitory concentrations (MICs), liquid medium, OD 660 nm
Type: cell-based, Escherichia coli
Details: Trypticase Soy Broth, 37° C. 24 hours
Method: Colonies of E. coli, E. faecium and C. kerstersii, which formed colonies on the plate medium obtained by mixing NAC medium and TSA medium at a ratio of 1:20, and colonies of P. aeruginosa were taken, added to 500 μl of the basal medium, stirred and subjected to the following experiment.
As antibacterial agents to which the sensitivity of P. aeruginosa is low and to which the sensitivities of E. coli, E. faecium and C. kerstersii are high, cefotaxime sodium salt (Sigma (referred to as “Cefotaxime” below)), ceftizoxime sodium (Fujisawa Healthcare (referred to as “Ceftizoxime” below)), vancomycin hydrochloride (Sigma (referred to as “Vancomycin” below)), minocyclin hydrochloride (Sigma (referred to as “Minocyclin” below)) and cefalotin sodium salt (Sigma (referred to as “Cefalotin” below)) were selected. The antibacterial agents were dissolved in sterilized distilled water at 51.2 mg/ml and then sterilized by filtration through a membrane filter of 0.45 μm (DISMIC-25cs: Toyo Roshi).
After adding 5 μl of the bacterial solutions to the wells and thoroughly stirring, the bacteria were cultured at 37° C. for 24 hours. After culturing, the OD values (660 nm) were measured, and the lowest concentrations of the antibacterial agents at which the growth was inhibited as compared to that of the negative control (MICs: minimum inhibitory concentrations) were determined. […]

Row | SMILES | MIC with respect to E. coli [μg/m]
1 | CO/N=C(\C(=O)N[C@@H]1C(=O)N2C(C(=O)O)=C(COC(C)=O)CS[C@H]12)c1csc(N)n1 [Cefotaxime, cefotaxime sodium salt] | < 0.5
2 | CO/N=C(\C(=O)N[C@@H]1C(=O)N2C(C(=O)O)=CCS[C@H]12)c1csc(N)n1 [Ceftizoxime, ceftizoxime sodium] | < 0.5
